Test results reported in the supplement of paper PMC12889115.
The other results are listed elsewhere or left out. These are raw signals, not scaled to a control.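 In the initial screen, polymyxin B was used at a concentration that permeabilizes Salmonella's outer membrane but not its inner membrane. Maximum growth was set by DMSO wells with or without polymyxin B. Since plates varied, data were ranked per plate, and compounds giving the lowest OD600 advanced as hits.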

Tested on: Salmonella enterica serovar Typhimurium SL1344
Test: bacterial growth OD600 after 18 h with compound and polymyxin B; higher = more bacterial growth (less inhibition)
Conditions: 50 µM, Mueller-Hinton broth

SMILES	bacterial growth OD600 (polymyxin B 0.75 µg/mL)	bacterial growth OD600 (polymyxin B 1 µg/mL)
Cc1ncsc1C(=O)N1CCC(C2CCN(c3ncccn3)CC2)C1 (stereo unspecified)	0.947	–
CC1(C2CCN(C(=O)c3cc4ccccc4oc3=O)CC2)NC(=O)N(Cc2ccsc2)C1=O (stereo unspecified)	0.815	–
CO[C@H]1[C@H](NC(=O)Cc2cccs2)c2ccccc2C12CCN(Cc1cc(C)c(O)c(C)c1)CC2	0.832	–
CCC(=O)N1CCCC(C(=O)c2ccc(-c3ccccc3)cc2)C1 (stereo unspecified)	–	0.471
Cc1cc(CN(C)C(=O)CC2(c3ccccc3)CC(=O)N(CCCOc3cccnc3)C2=O)on1 (stereo unspecified)	0.852	–
COc1ccc(/C=C/C(=O)NC2CCCN(C3Cc4ccccc4C3)C2)cc1 (stereo unspecified)	0.709	–
Cc1ccc(C(=O)N2CCC(n3nccc3NC(=O)C3CCOC3)CC2)cc1C (stereo unspecified)	–	0.905
c1ccc(OCc2noc(CN3CCN(c4ccccn4)CC3)n2)cc1	–	0.902
O=C(c1cc(COc2cccc(C(F)(F)F)c2)on1)N1CCCCO1	0.006	–
COc1ccccc1CCNC(=O)Cc1ccc(N2CCC(NCCn3cncn3)CC2)cc1	0.782	–
COc1cc(C(=O)NCCc2cccc(F)c2)ccc1OC1CCN(C(C)=O)CC1	–	1.33
CCC1CN(CCNC(=O)CC(C)C)Cc2cc(OC)ccc2O1 (stereo unspecified)	0.743	–
O[C@@H]1CN(Cc2cccc(Cn3cccn3)c2)CC[C@H]1N1CCN(c2ccccn2)CC1	–	1.25
COc1cccc(CCC(=O)N(C)C2CCCN(Cc3ccccc3F)C2)c1 (stereo unspecified)	–	0.871
CCCc1cc(CNC(=O)c2ccc(N3CCCC(CNC(C)=O)C3)nc2)on1 (stereo unspecified)	–	1.22
CCCCC1CN(CCC(=O)NCCOc2cccnc2)Cc2ccccc2O1 (stereo unspecified)	0.647	–

Whole records, looked up by structure. Values in the order: bacterial growth OD600 (polymyxin B 0.75 µg/mL) | bacterial growth OD600 (polymyxin B 1 µg/mL)
`Cc1ncsc1C(=O)N1CCC(C2CCN(c3ncccn3)CC2)C1` (stereo unspecified) is entered as 0.947 | –
`O[C@@H]1CN(Cc2cccc(Cn3cccn3)c2)CC[C@H]1N1CCN(c2ccccn2)CC1` is entered as – | 1.25

Next compounds follow:

SMILES	bacterial growth OD600 (polymyxin B 0.75 µg/mL)	bacterial growth OD600 (polymyxin B 1 µg/mL)
COc1ccc2c(C)nc(N3CCCC(C(=O)NCc4ccccc4)C3)nc2c1 (stereo unspecified)	0.361	–
O=C(Cc1ccc2c(c1)OCO2)NCc1cccnc1N1CCCCCCC1	0.51	–
Cc1ccccc1CN1CCOc2ccc(C(C)(O)CN(C)C)cc2C1 (stereo unspecified)	0.773	–
CC(C)N1CCC(N2CCC(C3CCN(c4ncccn4)CC3)C2)CC1 (stereo unspecified)	0.786	–
COc1ccc(/C=C/CN2CCC3(CC2)c2ccccc2[C@@H](NC(=O)COc2ccccc2)[C@@H]3O)cc1	0.799	–
Cc1noc(C)c1CC(=O)NC1CC(=O)N(CCCc2ccccc2)C1 (stereo unspecified)	–	1.07
CCOC(=O)C1(Cc2cccc(F)c2)CCN(Cc2cn(CC)nc2C)CC1	–	0.796
CCCN1CCCC1C(=O)Nc1ccc(-c2cscn2)cc1 (stereo unspecified)	0.833	–
O=C(Nc1cccc(-c2ccc(F)cc2)c1)C1CCCN1Cc1cccnc1 (stereo unspecified)	–	0.009
CSc1ccc(C(=O)N2CCOC(CCN(C)C)C2)cc1 (stereo unspecified)	0.823	–
O=C(/C=C/c1ccc(F)cc1)NCC1CCC2(CCN(CCCc3ccccc3)CC2)O1 (stereo unspecified)	0.03	–
CCOc1ccccc1CN1CCN(Cc2ccc(C)cc2)CC1CCO (stereo unspecified)	–	0.864
CC#CC(=O)NC1CC(C)(C)Cc2c1cnn2-c1ccc(OC)cc1 (stereo unspecified)	–	0.93
CC(c1ccon1)N(C)C(=O)c1coc(COc2ccccc2)n1 (stereo unspecified)	–	0.997
CCOC(=O)N1CCN(C(=O)c2ccc(N3CCC(NC(C)c4cn(C)nc4C)CC3)cc2)CC1 (stereo unspecified)	0.83	–
